Test results reported in PMC10716122.
These are yes or no findings as the source states them, for the method shown. Binding seen in cells or lysates may run through a third protein. Some results given as binding are weak or reduced against the parent protein; the word gives no strength. For part of these data: Tags and fused reporters may be left off the sequences shown.

The chains behind the UniProt entries cited, without tags or fusion partners. Where a name states a change or a piece, a line headed by the entry shows the natural chain unless it says otherwise.
UniProt O96017: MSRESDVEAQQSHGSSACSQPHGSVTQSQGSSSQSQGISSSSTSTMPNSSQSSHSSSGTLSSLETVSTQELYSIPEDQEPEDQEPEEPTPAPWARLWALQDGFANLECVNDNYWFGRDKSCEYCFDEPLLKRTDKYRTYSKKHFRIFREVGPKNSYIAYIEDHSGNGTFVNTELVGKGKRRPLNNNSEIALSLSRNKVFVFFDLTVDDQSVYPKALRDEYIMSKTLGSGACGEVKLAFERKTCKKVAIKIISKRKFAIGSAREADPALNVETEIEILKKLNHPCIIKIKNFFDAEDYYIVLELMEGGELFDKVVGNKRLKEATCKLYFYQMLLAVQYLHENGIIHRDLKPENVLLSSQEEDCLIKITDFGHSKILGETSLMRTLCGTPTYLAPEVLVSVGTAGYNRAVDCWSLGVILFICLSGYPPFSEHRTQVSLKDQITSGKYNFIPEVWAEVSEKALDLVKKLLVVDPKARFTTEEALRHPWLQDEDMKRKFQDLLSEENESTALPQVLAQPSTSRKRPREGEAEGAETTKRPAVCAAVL
UniProt Q8N884: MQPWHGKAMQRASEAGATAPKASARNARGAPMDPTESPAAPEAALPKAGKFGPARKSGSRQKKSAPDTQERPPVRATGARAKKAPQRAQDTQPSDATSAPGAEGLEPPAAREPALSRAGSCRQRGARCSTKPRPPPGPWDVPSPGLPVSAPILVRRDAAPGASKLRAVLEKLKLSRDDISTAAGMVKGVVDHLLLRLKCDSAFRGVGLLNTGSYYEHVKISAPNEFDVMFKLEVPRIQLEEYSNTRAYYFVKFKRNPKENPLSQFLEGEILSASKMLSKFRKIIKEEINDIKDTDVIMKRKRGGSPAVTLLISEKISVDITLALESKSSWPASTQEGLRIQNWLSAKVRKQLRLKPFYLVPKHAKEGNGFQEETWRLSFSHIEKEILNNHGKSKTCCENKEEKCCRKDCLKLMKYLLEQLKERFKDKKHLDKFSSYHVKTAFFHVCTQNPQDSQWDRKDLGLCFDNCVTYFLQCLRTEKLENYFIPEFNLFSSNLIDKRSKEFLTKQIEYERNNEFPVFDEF

Columns and labels:
[1] = target: Checkpoint kinase CHK2, wild type (human) (UniProt O96017); experiment: proximity ligation; HeLa cells on coverslips, fixed with 4% paraformaldehyde, permeabilised with 0.5% Triton X-100; Duolink In Situ Red Starter Kit; some panels after DNA damage, with BML-277 or with cGAS overexpressed or depleted
[2] = target: T1, TRIM41, HA-tagged (human) (UniProt Q8WV44); experiment: as above
T1 sequence: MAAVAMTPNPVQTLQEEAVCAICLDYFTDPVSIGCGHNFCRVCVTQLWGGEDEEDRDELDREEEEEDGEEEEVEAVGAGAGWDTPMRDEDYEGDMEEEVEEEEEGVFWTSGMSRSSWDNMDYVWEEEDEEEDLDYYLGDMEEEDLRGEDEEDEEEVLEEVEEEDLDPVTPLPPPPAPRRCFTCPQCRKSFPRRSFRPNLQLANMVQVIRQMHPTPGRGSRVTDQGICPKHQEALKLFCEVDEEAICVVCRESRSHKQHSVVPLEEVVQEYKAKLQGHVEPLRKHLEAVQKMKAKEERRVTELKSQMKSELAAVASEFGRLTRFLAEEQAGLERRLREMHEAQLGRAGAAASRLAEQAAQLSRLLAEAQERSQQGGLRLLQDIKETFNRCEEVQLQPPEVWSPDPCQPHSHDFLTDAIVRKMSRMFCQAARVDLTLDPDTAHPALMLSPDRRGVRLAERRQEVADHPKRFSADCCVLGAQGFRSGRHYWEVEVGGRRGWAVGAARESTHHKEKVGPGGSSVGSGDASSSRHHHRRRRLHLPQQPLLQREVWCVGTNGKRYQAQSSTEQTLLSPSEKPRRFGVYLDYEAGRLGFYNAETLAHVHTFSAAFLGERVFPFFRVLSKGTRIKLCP

[3] = target: Checkpoint kinase CHK2, wild type (human) (UniProt O96017); experiment: co-IP; transfected cells (HEK293T or HeLa) lysed 24 h post-transfection in 20 mM HEPES pH 8.0, 150 mM NaCl, 0.2 mM EDTA, 1% NP-40, 5% glycerol, sonicated; antibody-conjugated beads, 4 °C overnight; Western blot; some panels after etoposide (100 µg/mL), with the CHK2 inhibitor BML-277, with olaparib, or with cGAS overexpressed, knocked down or knocked out
[4] = target: T1, TRIM41, HA-tagged (human); experiment: as above

Substance: Cyclic GMP-AMP synthase (cGAS), wild type, expressed in human cells (from UniProt Q8N884 1-522)
- binding [1]: binds
- binding [2]: binds
- binding [3]: binds
- binding [4]: binds

Substance: cGAS D408N (cancer-associated mutant) (from UniProt Q8N884 1-522)
- binding [3]: binds
- binding [4]: binds

Substance: cGAS E383K (cancer-associated mutant) (from UniProt Q8N884 1-522)
- binding [3]: binds
- binding [4]: binds

Substance: cGAS L377P (cancer-associated mutant) (from UniProt Q8N884 1-522)
- binding [3]: binds
- binding [4]: binds

Substance: cGAS P486L (cancer-associated mutant) (from UniProt Q8N884 1-522)
- binding [3]: binds
- binding [4]: binds

Substance: cGAS S120A (from UniProt Q8N884 1-522)
- binding [2]: binds
- binding [4]: binds

Substance: cGAS S305A (from UniProt Q8N884 1-522)
- binding [2]: binds
- binding [4]: binds

Substance: cGAS S345L (cancer-associated mutant) (from UniProt Q8N884 1-522)
- binding [3]: binds
- binding [4]: binds
